In article PMC5047748:
No constants are given. Whether binding was seen depends on the method and setting. In cells and extracts the contact can be indirect. Some binding calls cover weakened binding; strength is not graded here.

Amino acid sequences for entries named in this document (tags omitted).
UniProt Q9VY77: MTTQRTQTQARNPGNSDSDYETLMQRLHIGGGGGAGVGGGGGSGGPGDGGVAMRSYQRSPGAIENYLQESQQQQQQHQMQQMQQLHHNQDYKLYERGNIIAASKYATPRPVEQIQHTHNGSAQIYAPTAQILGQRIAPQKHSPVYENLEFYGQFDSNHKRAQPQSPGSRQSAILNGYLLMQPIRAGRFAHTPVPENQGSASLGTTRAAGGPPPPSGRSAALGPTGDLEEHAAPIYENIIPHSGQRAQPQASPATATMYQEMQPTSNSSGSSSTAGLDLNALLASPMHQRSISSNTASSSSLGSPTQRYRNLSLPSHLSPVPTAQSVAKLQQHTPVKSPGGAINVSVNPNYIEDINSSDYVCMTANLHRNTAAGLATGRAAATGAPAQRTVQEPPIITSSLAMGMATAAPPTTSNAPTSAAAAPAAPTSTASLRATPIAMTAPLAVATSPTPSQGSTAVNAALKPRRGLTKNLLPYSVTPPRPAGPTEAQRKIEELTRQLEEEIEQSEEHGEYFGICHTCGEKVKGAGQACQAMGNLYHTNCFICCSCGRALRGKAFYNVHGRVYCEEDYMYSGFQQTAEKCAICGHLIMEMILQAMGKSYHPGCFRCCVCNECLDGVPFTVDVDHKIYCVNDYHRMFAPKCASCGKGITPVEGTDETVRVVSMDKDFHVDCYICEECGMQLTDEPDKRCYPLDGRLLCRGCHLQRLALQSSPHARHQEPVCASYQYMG
UniProt Q24311: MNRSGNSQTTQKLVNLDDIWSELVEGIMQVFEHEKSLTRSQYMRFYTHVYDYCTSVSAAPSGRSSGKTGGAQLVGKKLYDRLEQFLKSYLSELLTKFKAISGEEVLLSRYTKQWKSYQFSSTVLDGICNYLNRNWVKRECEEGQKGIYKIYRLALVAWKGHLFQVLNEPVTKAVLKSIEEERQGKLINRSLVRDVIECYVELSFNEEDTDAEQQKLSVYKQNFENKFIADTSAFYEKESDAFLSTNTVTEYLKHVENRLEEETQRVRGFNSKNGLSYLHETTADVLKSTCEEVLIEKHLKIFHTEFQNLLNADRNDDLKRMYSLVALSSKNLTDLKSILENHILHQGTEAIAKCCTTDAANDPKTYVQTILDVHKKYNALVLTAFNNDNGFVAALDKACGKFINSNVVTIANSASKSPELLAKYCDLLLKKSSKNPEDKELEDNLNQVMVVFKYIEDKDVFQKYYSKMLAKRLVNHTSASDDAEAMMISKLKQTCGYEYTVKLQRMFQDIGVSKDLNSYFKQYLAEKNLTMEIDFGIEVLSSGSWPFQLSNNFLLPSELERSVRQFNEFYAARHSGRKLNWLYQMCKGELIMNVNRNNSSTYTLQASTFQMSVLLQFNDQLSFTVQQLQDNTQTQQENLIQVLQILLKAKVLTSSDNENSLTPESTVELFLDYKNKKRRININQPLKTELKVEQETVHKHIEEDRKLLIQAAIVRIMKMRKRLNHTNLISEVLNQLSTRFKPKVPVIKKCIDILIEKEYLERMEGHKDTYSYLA
UniProt O76324: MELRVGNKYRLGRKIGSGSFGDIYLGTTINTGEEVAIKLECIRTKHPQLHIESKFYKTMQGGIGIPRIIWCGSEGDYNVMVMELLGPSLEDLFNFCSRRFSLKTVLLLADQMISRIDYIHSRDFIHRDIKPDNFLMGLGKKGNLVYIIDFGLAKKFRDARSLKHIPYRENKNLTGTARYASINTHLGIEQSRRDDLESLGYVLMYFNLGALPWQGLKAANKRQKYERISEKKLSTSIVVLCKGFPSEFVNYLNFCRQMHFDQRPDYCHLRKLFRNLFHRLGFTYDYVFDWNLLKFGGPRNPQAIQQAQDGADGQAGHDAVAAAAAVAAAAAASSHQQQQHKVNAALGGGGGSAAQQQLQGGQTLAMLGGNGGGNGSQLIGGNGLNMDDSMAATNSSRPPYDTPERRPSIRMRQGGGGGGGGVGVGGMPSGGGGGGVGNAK
UniProt O77430: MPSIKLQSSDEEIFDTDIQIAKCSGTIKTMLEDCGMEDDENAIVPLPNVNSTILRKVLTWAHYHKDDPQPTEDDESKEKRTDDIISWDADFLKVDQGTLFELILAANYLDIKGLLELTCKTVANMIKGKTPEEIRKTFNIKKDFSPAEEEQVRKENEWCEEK

Experiments:
Experiment in all cases: co-IP; transfected S2R+ cells; RIPA lysis buffer (50 mM Tris pH 7.5, 150 mM NaCl, 1 mM EDTA, 1% NP40, 5% glycerol); 1 µg antibodies 1 hr then Protein A beads 2 hr at 4°C; western blot
Ajuba (Drosophila) = Ajuba (Drosophila) (UniProt Q9VY77)
Cullin 1 (Drosophila) = Cullin 1 (Drosophila) (UniProt Q24311)
[1] = target: Discs overgrown (Dco), casein kinase 1ε (Drosophila) (UniProt O76324)
SkpA (Drosophila) = SkpA (Drosophila) (UniProt O77430)

binding (Ajuba (Drosophila)): no binding
binding (Cullin 1 (Drosophila)): binds
binding [1]: binds
binding (SkpA (Drosophila)): no binding
B1: Dlish (CG10933), expressed in S2 cells for co-IP (protein, UniProt A1ZAY1 1-355)
chain: MAFLCPVRMRRDKKKATNASIERDLPAVGVLGMGRITGSSSIETLVRVGIEKEHGLSPDSKMVVLHDFTPCVDDELEVKRGQLVNILYRENDWVYVIGQDSRQEGFIPFSYCAPCNTQLADLAVKKKLPREQCPEQPIEENIPLLGTDNKLDVLCDETLNPGSANSIENTLLVEPECTPFVKEPSGRCIVLYTFIARDENDLSVERGEFVTVLNREDPDWFWIMRSDGQEGFVPASFIYPADSVRVLQQQKATLNAMETILQQGQQGQQSQQQQQPQLGLGTDDLRYHGTELVMLYDYKAQAPDDLYLSVRRGDWIYADLTNQTVDGWLWAYAPKTRKYGFIPKAYARPPAMTSL
